Laboratory results as given in patent US20080118504A1 (University of California, published 2008).
Numbering of substitutions follows the chain as printed. These are yes or no findings as the source states them, for the method shown. Some binding calls cover weakened binding; strength is not graded here. For some assays here: Where a sequence is shown, tags or fusion partners need not be part of it.

By UniProt entry, the sequences of proteins in these tests, tags left out. Where a name states a change or a piece, a line headed by the entry shows the natural chain unless it says otherwise. Chains listed by the source or under a name are the forms on record and can include a tag or linker. Residues count along the entry.
UniProt O00206: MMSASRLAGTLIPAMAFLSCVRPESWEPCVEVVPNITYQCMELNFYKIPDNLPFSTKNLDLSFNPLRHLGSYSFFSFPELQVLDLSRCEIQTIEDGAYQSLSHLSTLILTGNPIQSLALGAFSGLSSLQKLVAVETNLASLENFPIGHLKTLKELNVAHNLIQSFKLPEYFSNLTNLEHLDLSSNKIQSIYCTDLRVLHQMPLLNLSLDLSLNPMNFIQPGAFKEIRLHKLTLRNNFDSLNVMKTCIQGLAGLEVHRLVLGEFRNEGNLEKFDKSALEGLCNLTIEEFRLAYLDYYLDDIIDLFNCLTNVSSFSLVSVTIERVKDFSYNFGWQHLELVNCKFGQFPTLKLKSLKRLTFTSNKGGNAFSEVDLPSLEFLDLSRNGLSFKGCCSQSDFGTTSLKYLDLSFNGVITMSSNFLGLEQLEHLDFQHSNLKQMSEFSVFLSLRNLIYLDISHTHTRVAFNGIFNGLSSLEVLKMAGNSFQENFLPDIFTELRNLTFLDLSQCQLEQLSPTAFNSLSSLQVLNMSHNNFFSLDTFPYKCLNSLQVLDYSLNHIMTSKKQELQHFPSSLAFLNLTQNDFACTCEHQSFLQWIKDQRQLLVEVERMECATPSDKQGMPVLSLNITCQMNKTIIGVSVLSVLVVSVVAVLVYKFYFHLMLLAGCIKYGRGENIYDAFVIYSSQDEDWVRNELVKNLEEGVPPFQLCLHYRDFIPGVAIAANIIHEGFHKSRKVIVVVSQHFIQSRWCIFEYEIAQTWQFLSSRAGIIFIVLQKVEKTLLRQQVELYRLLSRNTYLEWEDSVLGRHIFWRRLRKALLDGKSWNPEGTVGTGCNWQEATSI
TLR4 containing N-terminal HA-tag, stably transfected in CHO (EL1) cells: residues 24-839 of O00206
extracellular portion of TLR4 with a 6His tag and S-tag: residues 24-631 of O00206

What was measured:
[1] = target: TLR4 containing N-terminal HA-tag, stably transfected in CHO (EL1) cells (UniProt O00206); test: FACS with anti-His on TLR4 transfected cells, 16 hr incubation
[2] = target: TLR4 containing N-terminal HA-tag, stably transfected in CHO (EL1) cells (UniProt O00206); test: FACS with anti-His on TLR4 transfected cells
[3] = target: TLR4 containing N-terminal HA-tag, stably transfected in CHO (EL1) cells (UniProt O00206); test: FACS with anti-His on TLR4 transfected EL1 (CHO) cells, 15 min incubation
[4] = target: TLR4 containing N-terminal HA-tag, stably transfected in CHO (EL1) cells (UniProt O00206); test: FACS with anti-His on TLR4 transfected cells, 15 min and 16 hr incubation
[5] = target: extracellular portion of TLR4 with a 6His tag and S-tag (UniProt O00206); test: co-expression and purification on S-agarose; same result when the purified proteins were mixed and immunoprecipitated with S-agarose
[6] = target: TLR4 containing N-terminal HA-tag, stably transfected in CHO (EL1) cells (UniProt O00206); test: FACS with anti-His on TLR4 transfected EL1 cells, 5 ug/ml of gel filtration fractions of sMD-2, 15 min
[7] = target: TLR4 containing N-terminal HA-tag, stably transfected in CHO (EL1) cells (UniProt O00206); test: FACS on TLR4 transfected cells and pull-down with extracellular TLR4
[8] = target: extracellular portion of TLR4 with a 6His tag and S-tag (UniProt O00206); test: co-expression in High Five insect cells, capture on S-agarose, non-reducing SDS-PAGE and anti-His western blot
[9] = target: TLR4 containing N-terminal HA-tag, stably transfected in CHO (EL1) cells (UniProt O00206); test: FACS with anti-His on TLR4 transfected EL-1 (CHO) cells

Measured: binding

B1: soluble MD-2 alanine replacement mutant 38-42 (protein, not shown: small tags and cut ends)
chain: EAQKQYWVCNSSDASISYTYCAAAAAPISINVNPCIELKGSKGLLHIFYIPRRDLKQLYFNLYITVNTMNLPKRKEVICRGSDDDYSFCRALKGETVNTTISFSFKGIKFSKGKYKCVVEAISGSPEEMLFCLEFVILHQPNSN
binds: [1] | [2] | [3]

B2: unglycosylated MD-2 mutant NQ (N26 and N114 replaced with glutamine) (protein, not shown: small tags and cut ends)
chain: B1 chain with N10Q, A22D, A23K, A24M, A25Q, A26Y, N98Q
binds: [2] | [4]

B3: soluble MD-2 wild type (human MD-2 with C-terminal His-tag, from insect cells) (other)
chain: B1 chain with A22D, A23K, A24M, A25Q, A26Y
notes: Expressed with the gp64 signal peptide in place of its own; The purified protein is a mixture of monomer and disulfide-linked oligomers; also called sMD-2; sMD-2 WT; not shown: C-terminal V5/His tag of the vector (pBlueBac4.5/V5-His or pBac11)
not listed: [2] | [3] | [4]
binds: all other assays above

B4: soluble MD-2 alanine replacement mutant 125-129 (protein, not shown: small tags and cut ends)
chain: QKQYWVCNSSDASISYTYCDKMQYPISINVNPCIELKGSKGLLHIFYIPRRDLKQLYFNLYITVNTMNLPKRKEVICRGSDDDYSFCRALKGETVNTTISFSFKGIAAAAAKYKCVVEAISGSPEEMLFCLEFVILHQPNSN
binds: [1] | [2] | [3]
